Drawing on patent publication US9206188B2, “Substituted pyrrolo[2,3-b]pyridines as ITK and JAK inhibitors” (Arrien Pharmaceuticals LLC, priority 2013, dated 2015), this text covers IC50 for 1 molecule.

The subject of one assay is IL-4/STAT6. The assay is described as follows: SelectScreen cell-based pathway profiling, IL-4/STAT6, STAT6-bla RA1, IL-4 stimulated. To be noted: STAT6-bla RA1 cells, IL-4 stim, 10-point titration.
The test system of assay [1] is IL-2 release from CD4+ T cells. Nature of the assay: IL-2 release from CD4+ T cells using HTRF. It counts as cell-based. The settings on record: read-out: inhibition of IL-2 release from CD4+ T cells. On the technique in general: Time-resolved FRET reads energy transfer from a long-lived donor to a nearby acceptor.

In the case of `C[C@@H]1CCN(C(=O)CC#N)C[C@@H]1N(C)c1ncnc2[nH]ccc12` [Tofacitinib], the figures for the IC50 (with IL-4/STAT6; in assay [1]) were 0.061 µM and 1.2 µM, respectively.
